No constants are given. Whether binding was seen depends on the method and setting. Binding seen in cells or lysates may run through a third protein. Some results given as binding are weak or reduced against the parent protein; the word gives no strength.
Target: Mortalin/GRP75/HSPA9/mthsp70 (human (endogenous in MCF-7 and T47D)) (UniProt P38646)
Experiment: co-IP; anti-mortalin antibody and Protein A/G PLUS-Agarose, 4 °C overnight, NP40 lysates (300-500 ug protein) of control MCF-7 and T47D cells; for AIF control and Mortaparib^Plus-treated T47D cells; blots with anti-p53 (DO-1) or anti-AIF (E-1); normal rabbit IgG as control

Protein sequences, listed by entry. Tags and fused reporters are not part of them. Lines headed by an entry give the natural chain unless they say otherwise; changes in a name come on top. Residues count along the entry.
UniProt P38646, residues 47-679: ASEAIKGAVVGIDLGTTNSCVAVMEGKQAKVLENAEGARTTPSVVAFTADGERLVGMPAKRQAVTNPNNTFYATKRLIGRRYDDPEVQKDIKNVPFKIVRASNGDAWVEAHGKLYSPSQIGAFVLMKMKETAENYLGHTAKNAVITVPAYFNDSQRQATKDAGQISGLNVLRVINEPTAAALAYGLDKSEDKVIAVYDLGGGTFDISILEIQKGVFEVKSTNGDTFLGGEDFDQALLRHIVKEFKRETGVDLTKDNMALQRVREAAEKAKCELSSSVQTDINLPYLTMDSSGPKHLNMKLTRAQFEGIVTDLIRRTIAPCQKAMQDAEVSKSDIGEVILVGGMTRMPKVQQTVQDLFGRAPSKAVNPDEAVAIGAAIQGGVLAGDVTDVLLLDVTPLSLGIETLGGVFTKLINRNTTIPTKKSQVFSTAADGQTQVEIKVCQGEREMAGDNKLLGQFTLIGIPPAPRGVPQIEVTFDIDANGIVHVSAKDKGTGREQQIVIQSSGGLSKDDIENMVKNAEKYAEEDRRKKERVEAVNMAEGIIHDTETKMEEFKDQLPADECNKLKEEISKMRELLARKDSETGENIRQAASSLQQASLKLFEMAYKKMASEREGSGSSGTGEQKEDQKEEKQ
UniProt O95831, residues 102-613: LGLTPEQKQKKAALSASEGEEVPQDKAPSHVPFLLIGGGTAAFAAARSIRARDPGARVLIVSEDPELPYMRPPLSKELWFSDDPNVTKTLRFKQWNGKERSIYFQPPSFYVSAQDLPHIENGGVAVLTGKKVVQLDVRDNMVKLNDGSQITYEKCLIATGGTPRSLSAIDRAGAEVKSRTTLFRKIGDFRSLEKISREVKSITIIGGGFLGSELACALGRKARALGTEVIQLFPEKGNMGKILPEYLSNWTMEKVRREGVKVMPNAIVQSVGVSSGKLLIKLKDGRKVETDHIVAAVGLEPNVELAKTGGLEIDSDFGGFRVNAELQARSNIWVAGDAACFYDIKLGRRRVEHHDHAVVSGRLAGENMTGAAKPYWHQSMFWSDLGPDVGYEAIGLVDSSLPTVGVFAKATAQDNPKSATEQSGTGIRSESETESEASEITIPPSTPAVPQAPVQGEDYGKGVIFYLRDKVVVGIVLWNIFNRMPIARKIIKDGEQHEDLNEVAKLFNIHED

For “apoptosis-inducing factor (AIF) (from UniProt O95831 102-613)”, the binding was “binds”.

From paper PMC8234533
